# According to the supplement of paper PMC12067093, “Discovery and optimisation of a covalent ligand for TRIM25 and its application to targeted protein ubiquitination” (Chemical Science, 2025):
# By UniProt entry, the sequences of proteins in these tests, tags left out. Where a name states a change or a piece, a line headed by the entry shows the natural chain unless it says otherwise.
# UniProt Q9UH03, whole entry, looked up: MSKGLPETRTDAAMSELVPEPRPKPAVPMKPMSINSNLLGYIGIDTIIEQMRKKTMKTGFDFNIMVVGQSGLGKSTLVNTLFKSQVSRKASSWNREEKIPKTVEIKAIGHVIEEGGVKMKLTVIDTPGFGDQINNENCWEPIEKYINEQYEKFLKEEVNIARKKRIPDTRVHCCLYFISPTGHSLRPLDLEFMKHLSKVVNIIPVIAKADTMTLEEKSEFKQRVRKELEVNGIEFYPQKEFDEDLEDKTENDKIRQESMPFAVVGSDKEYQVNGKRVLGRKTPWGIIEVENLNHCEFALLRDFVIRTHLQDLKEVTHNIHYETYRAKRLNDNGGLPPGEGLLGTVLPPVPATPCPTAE
# UniProt O95487: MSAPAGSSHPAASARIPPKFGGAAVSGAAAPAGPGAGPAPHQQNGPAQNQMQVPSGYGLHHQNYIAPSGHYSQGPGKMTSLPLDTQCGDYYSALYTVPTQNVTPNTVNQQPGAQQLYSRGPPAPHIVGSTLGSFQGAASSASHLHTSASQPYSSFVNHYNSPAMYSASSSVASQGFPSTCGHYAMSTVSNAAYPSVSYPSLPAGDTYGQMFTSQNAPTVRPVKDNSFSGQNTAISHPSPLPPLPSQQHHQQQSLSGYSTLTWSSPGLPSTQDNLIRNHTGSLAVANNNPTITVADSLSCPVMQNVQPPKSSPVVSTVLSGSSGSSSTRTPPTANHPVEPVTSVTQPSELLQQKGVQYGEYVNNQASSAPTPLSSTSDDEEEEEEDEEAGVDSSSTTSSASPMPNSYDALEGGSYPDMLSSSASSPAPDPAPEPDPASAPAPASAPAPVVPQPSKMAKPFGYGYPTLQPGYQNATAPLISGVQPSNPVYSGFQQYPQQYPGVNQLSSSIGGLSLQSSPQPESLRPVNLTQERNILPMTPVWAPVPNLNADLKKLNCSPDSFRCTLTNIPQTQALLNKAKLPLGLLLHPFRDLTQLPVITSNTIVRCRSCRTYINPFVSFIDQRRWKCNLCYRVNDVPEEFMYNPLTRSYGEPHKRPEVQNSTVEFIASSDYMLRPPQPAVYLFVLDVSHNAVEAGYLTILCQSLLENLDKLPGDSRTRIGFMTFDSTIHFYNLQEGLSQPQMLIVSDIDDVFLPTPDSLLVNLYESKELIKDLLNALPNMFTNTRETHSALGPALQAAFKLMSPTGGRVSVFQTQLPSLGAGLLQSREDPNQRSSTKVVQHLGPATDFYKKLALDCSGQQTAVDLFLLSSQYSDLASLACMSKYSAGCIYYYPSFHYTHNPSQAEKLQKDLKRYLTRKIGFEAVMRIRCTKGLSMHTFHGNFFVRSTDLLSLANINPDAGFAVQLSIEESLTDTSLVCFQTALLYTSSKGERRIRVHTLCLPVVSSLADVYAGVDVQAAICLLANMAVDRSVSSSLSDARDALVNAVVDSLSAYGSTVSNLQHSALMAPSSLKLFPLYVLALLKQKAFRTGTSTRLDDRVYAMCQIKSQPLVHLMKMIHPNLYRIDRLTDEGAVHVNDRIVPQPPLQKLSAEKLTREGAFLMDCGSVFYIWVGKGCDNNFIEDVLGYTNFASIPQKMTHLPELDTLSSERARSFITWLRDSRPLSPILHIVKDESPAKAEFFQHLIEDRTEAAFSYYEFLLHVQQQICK
# UniProt P55735: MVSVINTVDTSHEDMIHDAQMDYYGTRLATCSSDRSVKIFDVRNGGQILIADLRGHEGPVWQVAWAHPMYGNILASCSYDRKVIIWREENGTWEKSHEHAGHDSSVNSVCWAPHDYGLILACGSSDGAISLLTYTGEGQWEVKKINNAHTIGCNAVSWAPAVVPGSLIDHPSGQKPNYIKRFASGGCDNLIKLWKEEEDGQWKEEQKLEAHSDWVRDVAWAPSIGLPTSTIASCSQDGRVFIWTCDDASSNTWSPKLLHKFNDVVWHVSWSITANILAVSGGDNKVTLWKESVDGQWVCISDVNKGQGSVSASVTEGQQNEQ
# UniProt Q9HCN8: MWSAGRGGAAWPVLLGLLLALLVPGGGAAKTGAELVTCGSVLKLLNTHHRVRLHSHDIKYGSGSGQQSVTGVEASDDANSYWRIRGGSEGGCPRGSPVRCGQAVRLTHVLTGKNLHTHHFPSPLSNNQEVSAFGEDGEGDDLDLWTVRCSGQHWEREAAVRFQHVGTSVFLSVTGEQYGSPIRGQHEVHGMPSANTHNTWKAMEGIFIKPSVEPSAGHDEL
# UniProt Q9UPW6: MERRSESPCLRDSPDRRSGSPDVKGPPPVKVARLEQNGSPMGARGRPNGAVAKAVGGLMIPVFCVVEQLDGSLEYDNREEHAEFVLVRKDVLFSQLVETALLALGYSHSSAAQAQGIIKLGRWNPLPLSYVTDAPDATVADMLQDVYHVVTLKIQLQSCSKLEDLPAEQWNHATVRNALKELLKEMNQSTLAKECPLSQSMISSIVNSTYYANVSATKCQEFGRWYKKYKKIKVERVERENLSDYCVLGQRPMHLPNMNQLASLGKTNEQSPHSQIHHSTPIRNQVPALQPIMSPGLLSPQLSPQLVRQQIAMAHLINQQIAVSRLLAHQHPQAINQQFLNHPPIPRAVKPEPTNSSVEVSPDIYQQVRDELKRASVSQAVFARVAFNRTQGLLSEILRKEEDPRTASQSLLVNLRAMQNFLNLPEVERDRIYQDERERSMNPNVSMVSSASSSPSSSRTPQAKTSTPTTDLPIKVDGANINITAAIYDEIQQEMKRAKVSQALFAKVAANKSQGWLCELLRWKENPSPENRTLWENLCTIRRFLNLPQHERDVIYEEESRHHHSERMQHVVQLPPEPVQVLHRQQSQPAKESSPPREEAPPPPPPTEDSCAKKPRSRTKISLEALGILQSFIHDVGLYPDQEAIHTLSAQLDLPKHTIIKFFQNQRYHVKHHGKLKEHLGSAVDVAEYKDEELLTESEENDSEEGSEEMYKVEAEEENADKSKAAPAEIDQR
# UniProt Q9NVA2: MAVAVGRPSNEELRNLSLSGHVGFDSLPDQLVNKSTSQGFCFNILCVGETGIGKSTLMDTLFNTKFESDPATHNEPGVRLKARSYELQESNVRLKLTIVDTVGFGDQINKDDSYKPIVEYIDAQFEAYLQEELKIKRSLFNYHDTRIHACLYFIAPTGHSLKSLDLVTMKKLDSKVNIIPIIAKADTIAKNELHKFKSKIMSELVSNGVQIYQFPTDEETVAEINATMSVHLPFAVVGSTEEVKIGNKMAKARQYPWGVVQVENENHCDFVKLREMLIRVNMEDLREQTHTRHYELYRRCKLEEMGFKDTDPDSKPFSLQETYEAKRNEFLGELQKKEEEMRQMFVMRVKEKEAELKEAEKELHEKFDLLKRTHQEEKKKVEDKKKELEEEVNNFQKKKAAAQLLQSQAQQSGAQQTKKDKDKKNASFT
# UniProt O75446: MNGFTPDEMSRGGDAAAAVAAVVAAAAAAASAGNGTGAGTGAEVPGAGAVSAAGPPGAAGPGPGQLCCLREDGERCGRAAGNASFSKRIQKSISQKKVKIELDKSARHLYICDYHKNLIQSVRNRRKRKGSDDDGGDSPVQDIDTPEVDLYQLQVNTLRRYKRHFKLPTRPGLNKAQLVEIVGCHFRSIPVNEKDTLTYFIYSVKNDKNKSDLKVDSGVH
# UniProt Q9Y6Y8: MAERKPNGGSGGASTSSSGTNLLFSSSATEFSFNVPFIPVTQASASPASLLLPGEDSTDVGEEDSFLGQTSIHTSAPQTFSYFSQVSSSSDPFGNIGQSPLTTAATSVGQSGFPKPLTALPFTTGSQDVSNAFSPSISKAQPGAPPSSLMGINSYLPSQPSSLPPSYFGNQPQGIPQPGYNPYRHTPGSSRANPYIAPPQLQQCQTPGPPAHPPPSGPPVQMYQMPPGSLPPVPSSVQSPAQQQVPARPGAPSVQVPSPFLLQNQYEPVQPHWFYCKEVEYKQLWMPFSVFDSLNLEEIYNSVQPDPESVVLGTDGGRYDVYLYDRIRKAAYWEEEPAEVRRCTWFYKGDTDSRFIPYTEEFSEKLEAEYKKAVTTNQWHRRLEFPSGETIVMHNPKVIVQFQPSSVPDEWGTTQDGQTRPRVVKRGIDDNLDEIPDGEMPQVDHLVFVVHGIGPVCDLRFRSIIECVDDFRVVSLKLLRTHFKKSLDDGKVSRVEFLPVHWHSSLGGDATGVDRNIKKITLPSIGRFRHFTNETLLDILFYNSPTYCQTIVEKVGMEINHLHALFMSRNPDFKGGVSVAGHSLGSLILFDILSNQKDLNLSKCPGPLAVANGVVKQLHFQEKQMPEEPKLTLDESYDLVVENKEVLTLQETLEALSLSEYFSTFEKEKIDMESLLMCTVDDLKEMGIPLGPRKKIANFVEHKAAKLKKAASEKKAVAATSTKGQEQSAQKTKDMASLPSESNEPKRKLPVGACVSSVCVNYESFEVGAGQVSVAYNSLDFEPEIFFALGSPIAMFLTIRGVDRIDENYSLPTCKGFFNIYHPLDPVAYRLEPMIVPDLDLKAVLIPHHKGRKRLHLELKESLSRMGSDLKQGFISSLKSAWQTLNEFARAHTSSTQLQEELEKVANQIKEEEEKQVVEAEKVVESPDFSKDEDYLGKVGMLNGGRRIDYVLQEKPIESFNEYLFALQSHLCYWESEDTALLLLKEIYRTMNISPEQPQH
# UniProt P21912: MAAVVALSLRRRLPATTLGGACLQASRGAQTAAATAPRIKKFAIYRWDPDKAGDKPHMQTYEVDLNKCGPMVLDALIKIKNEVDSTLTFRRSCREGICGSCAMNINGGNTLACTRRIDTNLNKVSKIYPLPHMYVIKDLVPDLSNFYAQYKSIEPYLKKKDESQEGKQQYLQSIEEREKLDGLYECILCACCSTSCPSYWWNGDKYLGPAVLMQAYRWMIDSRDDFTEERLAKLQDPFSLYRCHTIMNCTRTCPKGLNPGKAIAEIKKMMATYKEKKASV
# UniProt Q96I15: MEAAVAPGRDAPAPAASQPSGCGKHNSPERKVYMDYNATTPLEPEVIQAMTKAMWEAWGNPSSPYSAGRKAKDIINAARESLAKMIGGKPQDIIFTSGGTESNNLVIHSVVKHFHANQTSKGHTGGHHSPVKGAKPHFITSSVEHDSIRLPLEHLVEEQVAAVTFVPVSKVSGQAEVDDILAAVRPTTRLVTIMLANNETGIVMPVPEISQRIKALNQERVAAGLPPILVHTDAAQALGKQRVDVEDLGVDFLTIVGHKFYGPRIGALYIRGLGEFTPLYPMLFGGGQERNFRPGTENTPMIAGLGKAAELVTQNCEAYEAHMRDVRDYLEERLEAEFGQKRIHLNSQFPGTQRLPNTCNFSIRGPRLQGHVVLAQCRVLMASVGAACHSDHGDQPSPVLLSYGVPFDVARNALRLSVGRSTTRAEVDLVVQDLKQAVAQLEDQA
# UniProt P22307: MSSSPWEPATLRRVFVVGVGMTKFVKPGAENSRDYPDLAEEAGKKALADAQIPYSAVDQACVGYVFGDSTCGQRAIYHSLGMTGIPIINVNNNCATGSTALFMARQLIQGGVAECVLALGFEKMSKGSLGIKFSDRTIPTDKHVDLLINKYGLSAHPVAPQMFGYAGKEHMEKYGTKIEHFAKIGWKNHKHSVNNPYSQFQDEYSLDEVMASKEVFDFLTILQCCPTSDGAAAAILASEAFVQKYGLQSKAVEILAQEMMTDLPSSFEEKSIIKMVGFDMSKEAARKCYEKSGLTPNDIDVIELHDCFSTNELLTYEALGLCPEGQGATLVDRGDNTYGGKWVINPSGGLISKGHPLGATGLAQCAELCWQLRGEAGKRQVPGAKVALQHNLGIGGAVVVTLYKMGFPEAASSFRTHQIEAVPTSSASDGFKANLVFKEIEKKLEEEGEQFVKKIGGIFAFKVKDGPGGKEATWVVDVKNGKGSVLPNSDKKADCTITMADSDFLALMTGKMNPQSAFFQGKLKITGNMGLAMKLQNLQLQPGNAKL
# UniProt Q86UD0: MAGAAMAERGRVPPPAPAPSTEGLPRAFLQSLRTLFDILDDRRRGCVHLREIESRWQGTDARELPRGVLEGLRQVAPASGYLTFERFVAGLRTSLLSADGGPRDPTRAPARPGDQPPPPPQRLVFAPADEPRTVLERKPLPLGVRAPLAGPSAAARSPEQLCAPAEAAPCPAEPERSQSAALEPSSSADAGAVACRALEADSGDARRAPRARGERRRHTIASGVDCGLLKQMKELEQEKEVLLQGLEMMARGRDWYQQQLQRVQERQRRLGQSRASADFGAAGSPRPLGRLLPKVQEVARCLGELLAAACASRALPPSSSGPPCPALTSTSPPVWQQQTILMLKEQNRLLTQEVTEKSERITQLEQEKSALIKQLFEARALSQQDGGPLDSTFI
# UniProt Q9Y3A5: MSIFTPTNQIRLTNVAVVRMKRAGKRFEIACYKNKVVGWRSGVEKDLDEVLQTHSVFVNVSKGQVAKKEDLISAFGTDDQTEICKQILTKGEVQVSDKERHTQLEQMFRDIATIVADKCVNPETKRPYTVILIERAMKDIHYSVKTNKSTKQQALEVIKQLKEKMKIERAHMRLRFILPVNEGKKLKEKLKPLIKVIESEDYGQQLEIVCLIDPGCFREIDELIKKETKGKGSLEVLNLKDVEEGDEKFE
# The other results are listed elsewhere or left out.
# Compound: Cc1cc(ccc1-c1ccccc1)C(=O)N1CCCN(CC1)C(=O)CCl [compound 10]
# Assay: probe-labelled cysteine peptide fold change vs DMSO (competition) (log2 fold change); higher = less target engagement (more negative = stronger competition)
# Conditions: THP-1, incubation time: 4 h
# 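Further: competitive profiling in live THP-1 cells: cysteine peptides tagged with an iodoacetamide desthiobiotin (IA-DTB) probe, intensity after compound treatment relative to DMSO-treated cells.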
target,measurement,setting,value
SEPT3_Q9UH03_295_KTPWGIIEVENLNHCEFALLR (UniProt Q9UH03),probe-labelled cysteine peptide fold change,10 µM,-0.17
same,probe-labelled cysteine peptide fold change,50 µM,-0.0664
SCAF11_Q99590_1020_HRNDCPNWITEK (UniProt Q99590),probe-labelled cysteine peptide fold change,10 µM,-0.138
same,probe-labelled cysteine peptide fold change,50 µM,-0.262
SDCBP_O00560_166_FGDQVLQINGENCAGWSSDK (UniProt O00560),probe-labelled cysteine peptide fold change,10 µM,-0.113
same,probe-labelled cysteine peptide fold change,50 µM,-0.0879
SEC24B_O95487_1103_VYAMCQIK (UniProt O95487),probe-labelled cysteine peptide fold change,10 µM,-0.0244
same,probe-labelled cysteine peptide fold change,50 µM,-0.0589
SEC13_P55735_299_ESVDGQWVCISDVNK (UniProt P55735),probe-labelled cysteine peptide fold change,10 µM,0.282
same,probe-labelled cysteine peptide fold change,50 µM,0.245
SEC24D_O94855_1021+1022_GLYGGSSYVDFLCCVHK (UniProt O94855),probe-labelled cysteine peptide fold change,10 µM,-0.000618
same,probe-labelled cysteine peptide fold change,50 µM,-0.939
SDF2L1_Q9HCN8_92_IRGGSEGGCPR (UniProt Q9HCN8),probe-labelled cysteine peptide fold change,10 µM,-0.14
same,probe-labelled cysteine peptide fold change,50 µM,-0.225
SATB2_Q9UPW6_159_IQLQSCSK (UniProt Q9UPW6),probe-labelled cysteine peptide fold change,10 µM,-0.0941
same,probe-labelled cysteine peptide fold change,50 µM,0.0522
SEC13_P55735_234_DVAWAPSIGLPTSTIASCSQDGR (UniProt P55735),probe-labelled cysteine peptide fold change,10 µM,-0.0557
same,probe-labelled cysteine peptide fold change,50 µM,0.00507
SCMH1_Q96GD3_76_NTTSTCIATVVGLTGAR (UniProt Q96GD3),probe-labelled cysteine peptide fold change,10 µM,0.162
same,probe-labelled cysteine peptide fold change,50 µM,0.276
SATB1_Q01826_173_IQLHSCPK (UniProt Q01826),probe-labelled cysteine peptide fold change,10 µM,-0.0552
same,probe-labelled cysteine peptide fold change,50 µM,-0.188
SDF2L1_Q9HCN8_92_GGSEGGCPR (UniProt Q9HCN8),probe-labelled cysteine peptide fold change,10 µM,-0.15
same,probe-labelled cysteine peptide fold change,50 µM,0.269
SCML2_Q9UQR0_121_LVDSPDIQPVGTCEK (UniProt Q9UQR0),probe-labelled cysteine peptide fold change,10 µM,-0.315
same,probe-labelled cysteine peptide fold change,50 µM,-0.0817
SEPT11_Q9NVA2_41_STSQGFCFNILCVGETGIGK (UniProt Q9NVA2),probe-labelled cysteine peptide fold change,10 µM,0.0312
same,probe-labelled cysteine peptide fold change,50 µM,0.112
SART3_Q15020_537_AVQCTSDYPEHVCEVLLTMER (UniProt Q15020),probe-labelled cysteine peptide fold change,10 µM,-0.0953
same,probe-labelled cysteine peptide fold change,50 µM,0.0951
SATB1_Q01826_91_GTMLPVFCVVEHYENAIEYDCKEEHAEFVLVR (UniProt Q01826),probe-labelled cysteine peptide fold change,10 µM,-0.0836
same,probe-labelled cysteine peptide fold change,50 µM,-0.32
SAP30_O75446_112_HLYICDYHK (UniProt O75446),probe-labelled cysteine peptide fold change,10 µM,-0.000117
same,probe-labelled cysteine peptide fold change,50 µM,-0.553
SAP130_Q9H0E3_951_VHLCAAQLLQLTNLEHDVYER (UniProt Q9H0E3),probe-labelled cysteine peptide fold change,10 µM,0.0945
same,probe-labelled cysteine peptide fold change,50 µM,0.344
SCAF8_Q9UPN6_1170_DDRDFDFCR (UniProt Q9UPN6),probe-labelled cysteine peptide fold change,10 µM,-0.189
same,probe-labelled cysteine peptide fold change,50 µM,-0.581
SAP30L_Q9HAJ7_74_HLYICDFHK (UniProt Q9HAJ7),probe-labelled cysteine peptide fold change,10 µM,0.0243
same,probe-labelled cysteine peptide fold change,50 µM,-0.578
SEC23IP_Q9Y6Y8_604_CPGPLAVANGVVK (UniProt Q9Y6Y8),probe-labelled cysteine peptide fold change,10 µM,-0.165
same,probe-labelled cysteine peptide fold change,50 µM,-0.289
SCCPDH_Q8NBX0_238_WPISYCR (UniProt Q8NBX0),probe-labelled cysteine peptide fold change,10 µM,-0.242
same,probe-labelled cysteine peptide fold change,50 µM,-1.65
SDHB_P21912_243+249_CHTIMNCTR (UniProt P21912),probe-labelled cysteine peptide fold change,10 µM,-0.163
same,probe-labelled cysteine peptide fold change,50 µM,-0.496
SCLY_Q96I15_22_DAPAPAASQPSGCGK (UniProt Q96I15),probe-labelled cysteine peptide fold change,10 µM,-0.196
same,probe-labelled cysteine peptide fold change,50 µM,-0.596
SEC23B_Q15437_346_TAANGHCIDIYACALDQTGLLEMK (UniProt Q15437),probe-labelled cysteine peptide fold change,10 µM,-0.139
same,probe-labelled cysteine peptide fold change,50 µM,-0.168
SEMA4A_Q9H3S1_514_DPHCAWDPESR (UniProt Q9H3S1),probe-labelled cysteine peptide fold change,10 µM,0.0945
same,probe-labelled cysteine peptide fold change,50 µM,-0.196
SCP2_P22307_495_ADCTITMADSDFLALMTGK (UniProt P22307),probe-labelled cysteine peptide fold change,10 µM,0.201
same,probe-labelled cysteine peptide fold change,50 µM,-0.0348
SDHA_P31040_89_AAFGLSEAGFNTACVTK (UniProt P31040),probe-labelled cysteine peptide fold change,10 µM,0.0671
same,probe-labelled cysteine peptide fold change,50 µM,0.223
SCYL3_Q8IZE3_184_SIQSIRDPASIPPEEMSPEFTTLPECHGHAR (UniProt Q8IZE3),probe-labelled cysteine peptide fold change,10 µM,-0.1
same,probe-labelled cysteine peptide fold change,50 µM,-0.102
SDHB_P21912_249_CHTIMNCTR (UniProt P21912),probe-labelled cysteine peptide fold change,10 µM,0.00394
same,probe-labelled cysteine peptide fold change,50 µM,0.104
SATB2_Q9UPW6_246_VERENLSDYCVLGQR (UniProt Q9UPW6),probe-labelled cysteine peptide fold change,10 µM,0.127
same,probe-labelled cysteine peptide fold change,50 µM,-0.158
SEC23IP_Q9Y6Y8_678_IDMESLLMCTVDDLK (UniProt Q9Y6Y8),probe-labelled cysteine peptide fold change,10 µM,0.132
same,probe-labelled cysteine peptide fold change,50 µM,0.114
SCAF4_O95104_506_GLPQVKPETASVCSTTLWVGQLDKR (UniProt O95104),probe-labelled cysteine peptide fold change,10 µM,-0.0376
same,probe-labelled cysteine peptide fold change,50 µM,-0.21
SAPCD2_Q86UD0_46_GCVHLR (UniProt Q86UD0),probe-labelled cysteine peptide fold change,10 µM,0.167
same,probe-labelled cysteine peptide fold change,50 µM,-0.125
SEC24C_P53992_452_FQCCFCSCINDVPPQYFQHLDHTGK (UniProt P53992),probe-labelled cysteine peptide fold change,10 µM,0.102
same,probe-labelled cysteine peptide fold change,50 µM,-0.096
SBDS_Q9Y3A5_210+216_VIESEDYGQQLEIVCLIDPGCFR (UniProt Q9Y3A5),probe-labelled cysteine peptide fold change,10 µM,0.176
same,probe-labelled cysteine peptide fold change,50 µM,-0.074
SCFD2_Q8WU76_79_AVFVLSCLLK (UniProt Q8WU76),probe-labelled cysteine peptide fold change,10 µM,0.142
same,probe-labelled cysteine peptide fold change,50 µM,0.51
SEPT11_Q9NVA2_41+46_STSQGFCFNILCVGETGIGK (UniProt Q9NVA2),probe-labelled cysteine peptide fold change,10 µM,0.151
same,probe-labelled cysteine peptide fold change,50 µM,-0.125

# Part of the list above, as tab-separated lines.
target	measurement	setting	value
SEPT3_Q9UH03_295_KTPWGIIEVENLNHCEFALLR (UniProt Q9UH03)	probe-labelled cysteine peptide fold change	50 µM	-0.0664
SEC24B_O95487_1103_VYAMCQIK (UniProt O95487)	probe-labelled cysteine peptide fold change	50 µM	-0.0589
SAP30_O75446_112_HLYICDYHK (UniProt O75446)	probe-labelled cysteine peptide fold change	50 µM	-0.553
SCLY_Q96I15_22_DAPAPAASQPSGCGK (UniProt Q96I15)	probe-labelled cysteine peptide fold change	10 µM	-0.196
SCAF4_O95104_506_GLPQVKPETASVCSTTLWVGQLDKR (UniProt O95104)	probe-labelled cysteine peptide fold change	50 µM	-0.21
SAPCD2_Q86UD0_46_GCVHLR (UniProt Q86UD0)	probe-labelled cysteine peptide fold change	50 µM	-0.125
SBDS_Q9Y3A5_210+216_VIESEDYGQQLEIVCLIDPGCFR (UniProt Q9Y3A5)	probe-labelled cysteine peptide fold change	10 µM	0.176
